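Phenotypic screen: M. tuberculosis growth, glucose 7H9 medium, 3 days; the read-out is not stated. Compounds at 50 µM. Higher reads as more growth inhibition (inferred: compounds with an IC50 in retests scored well above the rest). Of about 69,000 compounds tested this way, about 760 (1.1%) reached 50% or more in at least one test.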

Results are given as percent effect.
How 0% and 100% were set is not recorded. Most values in the screen are low, and negative values occur.
This is an unselected part of the compounds tested.
Two or more numbers in one place are separate tests of the same structure; such repeats can differ widely.

structure | Percent Effect
CCCc1n[nH]c(C2CN(CCn3cccn3)CCO2)n1 (centres unmarked) | 10.92% and -3.449%
COCCN1CCN(CCS(=O)(=O)c2cccc(OC)c2)CC1 | 23.23%
CCNC(=O)[C@@H]1C[C@H](N)CN1c1cc(CC)nc(N(C)C)n1 | 0.5547% and 1.732%
FC(F)(F)c1ccnc(N2CCCOCC2)c1 | -1.481% and -5.087%
CSc1ccccc1C(C(=O)O)N(C)CC1CCOCC1 (centres unmarked) | -24.87%
O=C(CN(CC(O)c1ccc(F)cc1)C1CC1)NCc1cccs1 (centres unmarked) | -6.257%
CCN(C(=O)c1ccc2nnc(C3CCN(CCOC)C3)n2c1)C(C)C.O=C(O)C(F)(F)F (centres unmarked) | -13.6%
O=C(C1CCCc2[nH]ncc21)N1CCCCCC1 (centres unmarked) | 6.256%
CC(NC(=O)NCCCn1cccn1)c1ccc2c(c1)OCCCO2 (centres unmarked) | -7.932%
Cn1nc(C2CCN(CC(=O)NC3CC3)CC2)n(-c2ccccc2)c1=O | 0.177%
CCN(C)C[C@@H]1CN(C(=O)c2cc(C(F)(F)F)n[nH]2)C[C@@H]1CO | 7.907%
CC(C)N1CCC(C(=O)N2CCc3c(nc(CC4CC4)[nH]c3=O)C2)CC1 | -18.09%
O=C(O)C(F)(F)F.O=C(O)C(F)(F)F.[H][C@]12C[C@@H](C(=O)N(C)Cc3ccccn3)CO[C@@]1([H])CCN(C)C2 | -28.9%
CC(=O)N1CCCc2cc(NC(=O)NCCc3cnn(C)c3)ccc21 | -0.3118% and -11.48%
O=C(Cc1n[nH]c2ccccc12)N1CCC(Nc2cccnn2)CC1 | 19.87%
[H][C@]12CC[C@]([H])(CN(C(=O)c3ccncc3)C1)N(C(=O)COCC)C2 | -13.98%
CC(C)c1cc(NC(=O)CN2CCc3c(nc(C(C)C)n3C)C2)on1 | 1.395%
O=C(NC(CN1CCCC1)c1ccccc1)c1c(O)cc(F)cc1F (centres unmarked) | 6.459%
CCc1nc2c(NCC3COc4cc(OC)ccc4C3)ncnc2o1 (centres unmarked) | -7.146%
Cc1cc2ccccc2n1CCC(=O)NCCN(C)S(C)(=O)=O | -15.55%
O=C(c1ccccc1)C1CCN(C(=O)CC2COCCN2)CC1 (centres unmarked) | -25.86%
CCn1c(Cn2cncn2)nnc1C1CCN(Cc2ccc(C)o2)CC1 | -44.78%
[H][C@@]12C[C@H](C)O[C@]1([H])CCN(C(=O)CCOc1ccccc1)C2 | -20.79%
Fc1ccc(CNCCn2cccn2)c(F)c1 | -6.812%
Cc1ccc(N2N=C(C(N)=O)S(=O)(=O)c3cccnc32)cc1 | 101.9%
O=C(CN1CCCC(Cn2cncn2)C1)NCCOc1ccccc1 (centres unmarked) | -6.301%
O=C(NCC1(O)CCOC1)NCC1(c2ccccc2Cl)CCC1 (centres unmarked) | 19.14%
O=C(c1cocn1)N1CCC[C@]2(C[C@@H](OCC3CC3)CO2)C1 | -5.705%
CCN1CCN(S(=O)(=O)c2cnc(NC(C)=O)s2)CC1 | 13.98%
O=C(O)C(F)(F)F.[H][C@@]12C[C@H](C(=O)NCCOC)CN(Cc3ccoc3)[C@]1([H])CCO2 | 12.11%
O=C(CCCNCc1ccccc1)N1CCCn2cncc2C1 | 1.978%
CC1CCCN(C(=O)c2ncncc2Cl)C1 (centres unmarked) | -48.84%
Cc1nc(C)n(CC2CCCCN2CC(=O)Nc2nncs2)n1 (centres unmarked) | 5.844%
Fc1ccc(CNc2ccccc2Cn2cncn2)cc1 | 14.06%
c1ccc(CNC2CCc3ncnn3C2)nc1 (centres unmarked) | -30.07%
O=C(NCCN1CCCCC1)c1ccn(-c2ccc(F)cc2)n1 | 13.53%
Cc1nn(C)c2cnn(CC(=O)NCc3cccs3)c12 | 0.07797%
Cc1ccccc1CN1CCC(NCC2CNc3ccnn3C2)CC1 (centres unmarked) | 22.91%
Cc1cc2nc(CO[C@H]3CN(C4CCCCC4)C[C@H]3F)[nH]c2cc1C | -12.75% and 10.46%
CC(C)c1cc(NC(=O)CN2CCn3c(nnc3C3CC3)C2)on1 | 7.647%
CNC(=O)NC(=O)CCSc1ccccc1Cl | 8.848%
COc1ncccc1CNC(=O)N(Cc1ccccc1F)C1CC1 | -10.69%
Clc1nc2ccccn2c1CNCC1CN(C2CC2)CCO1 (centres unmarked) | -8.207%
Cc1nc(C(=O)N(C)CC(F)(F)C(F)(F)F)c2ccccn12 | -1.789% and 63.2%
CCN1CCCC1CNCc1cc2cc3c(cc2[nH]c1=O)OCCO3 (centres unmarked) | 33.13%
CS(=O)(=O)CCn1ccc(NC(=O)Cc2cccc(Cl)c2)n1 | -10.75%
CCOc1cccc2c1OCC(C(=O)NS(=O)(=O)c1cccs1)=C2 | 23.17%
CN(C)c1cc2c(nn1)CCN(C(=O)c1ccc(-n3cccn3)nc1)C2 | -0.3587%
Cc1nccc(CNC(=O)NCCOc2ccc(F)c(F)c2)n1 | 21.62%
[H][C@@]12CC(=O)N(CC)[C@@]1([H])CCN2S(=O)(=O)c1ccc(OC)cc1 | -24.14%
O[C@H]1[C@H](NCCc2ccccn2)c2ccccc2C12CCNCC2 | -22.05%
CCCN1CCCn2c(nc(CNC(=O)N3CCCC3)cc2=O)C1.O=C(O)C(F)(F)F | -2.195% and 3.032%
Cc1cc(NC(=O)c2nc(N3CCCC3)ncc2Cl)nc(C(C)C)n1 | -15.89%
CC(C)n1c(=O)c2ccccc2n(CCCN(C)C)c1=O.Cl | -18.77%
CN(C)c1ncccc1NC(=O)COCC1CC1 | 19.45% and -12.38%
O=C(NC1CCCOc2cc(Cl)ccc21)c1ccc(=O)[nH]n1 (centres unmarked) | 14.97%
Cc1cc(N2CCC(N(C)C(=O)c3ccc(C#N)cc3)CC2)nc(C)n1 | -9.708%
Cc1cccc(CSc2ncc(Br)c(C(=O)O)n2)c1 | -23.69%
NC(=O)C1(c2cnccn2)CCCN1Cc1ccc(Cl)cc1 (centres unmarked) | 21.48%
O=S(=O)(CCNCc1ccc(Cl)cc1)N1CCOCC1 | 16.57%
CC(Cn1cccn1)NC(=O)NCc1cccnc1OC1CCCC1 (centres unmarked) | 4.954%
O=C(O)C(F)(F)F.[H][C@@]12CCN(c3nncs3)[C@@]1([H])CCN2C(=O)NC1CC1 | 0.8147% and -18.35%
Cc1nc(N2CCCC2)ncc1-c1cc(O)nc(N2CCOCC2)n1 | 23.53%
CC(C)[C@]1(O)CN(C(=O)CNC(N)=O)C[C@H]1C | 26.64%
CNC(=O)CN(C)C(=O)c1cc2ccccc2cc1OC | 15.23%
[H][C@@]12CCN(Cc3ccc4c(c3)OCO4)C[C@]1([H])O[C@@H](C(=O)NC)C2 | -24.06%
NC(=O)c1csc(N2CCCC(c3n[nH]c(=O)n3-c3ccccc3)C2)n1 (centres unmarked) | -14.89%
Cc1nc2n(n1)CC(NCc1nc(-c3cccs3)no1)CC2 (centres unmarked) | 14.71%
Oc1cc(CC2COCCN(CC3(O)CCOCC3)C2)ncn1 (centres unmarked) | -51.95%
CN1CCN(C(=O)Cc2csc(-c3ccsc3)n2)C(c2ccccc2)C1 (centres unmarked) | 9.805% and -5.128%
CCCc1nnc(NC(C)c2ccc3c(c2)OCCO3)o1 (centres unmarked) | -0.4952% and 1.165%
N#Cc1c(F)cccc1N1CCN(C(=O)Nc2nncs2)CC1 | 3.663%
CC(C)CCN1CCNC(=O)C1CC(=O)NCCc1cc(O)ncn1 (centres unmarked) | 77.43% and 0.4058%
Cc1nn(C)c2c(=O)n(CC(=O)NCc3ccccn3)ccc12 | 29.25%
N#Cc1ccc(NCCNc2ccc(C(F)(F)F)cn2)nc1 | 25.69%
O=C(CCC1CCCC1)N1CCC(O)(C(F)(F)F)C1 (centres unmarked) | 41.98%
CN1CCC(N(Cc2ccccc2)C(=O)c2ccn3cncc3c2)CC1 | 3.707% and -0.726%
c1cn(CC2CC2)c(C2CCN(CCC3CCOC3)CC2)n1 (centres unmarked) | 15.79%
COc1ccc2c(O)c(NC(=O)NCC3CC3)cnc2c1 | -35.53%
Cc1cc(C)c2c(N3CCC(C(=O)N4CCCC4)CC3)ncnc2n1 | 1.435%
COc1nc2c(cc1C(=O)NCc1nc(CSC)no1)CCC2 | -7.674% and 9.854%
Cc1noc(C)c1CN(C)CCc1nc(-c2cccc(Cl)c2)no1 | 30.62% and 35.95%
CCc1c(C)n(CC(C)=O)c2nc3ccccc3n2c1=O | -5.798% and -2.621%
Cn1cc(-c2nnc3sc(C4CC4)nn23)cn1 | -1.744%
O=C(CNC(=O)c1cnc2ccccc2c1O)NCCCn1ccnc1 | -12.43%
CNC(=O)c1cccc(CN2CCN(C3=NCC(C)(C)S3)CC2)c1 | 22.4%
CCOCC1CN(Cc2cnn(C)c2)Cc2nn(CC3CC3)cc21.O=C(O)C(F)(F)F (centres unmarked) | 5.664%
Cc1ccc(N2CCCC(NCc3cnc(C)s3)C2)nn1 (centres unmarked) | -21.72%
CCN(Cc1cc(F)c(OC)c(Cl)c1)Cc1nc(COC)no1 | 21.34%

The first 10 entries again:

- CCCc1n[nH]c(C2CN(CCn3cccn3)CCO2)n1 (centres unmarked) : 10.92% and -3.449%
- COCCN1CCN(CCS(=O)(=O)c2cccc(OC)c2)CC1 : 23.23%
- CCNC(=O)[C@@H]1C[C@H](N)CN1c1cc(CC)nc(N(C)C)n1 : 0.5547% and 1.732%
- FC(F)(F)c1ccnc(N2CCCOCC2)c1 : -1.481% and -5.087%
- CSc1ccccc1C(C(=O)O)N(C)CC1CCOCC1 (centres unmarked) : -24.87%
- O=C(CN(CC(O)c1ccc(F)cc1)C1CC1)NCc1cccs1 (centres unmarked) : -6.257%
- CCN(C(=O)c1ccc2nnc(C3CCN(CCOC)C3)n2c1)C(C)C.O=C(O)C(F)(F)F (centres unmarked) : -13.6%
- O=C(C1CCCc2[nH]ncc21)N1CCCCCC1 (centres unmarked) : 6.256%
- CC(NC(=O)NCCCn1cccn1)c1ccc2c(c1)OCCCO2 (centres unmarked) : -7.932%
- Cn1nc(C2CCN(CC(=O)NC3CC3)CC2)n(-c2ccccc2)c1=O : 0.177%

Source: ChEMBL document CHEMBL3988442, “University of Dundee, Small-Polar-MMV Screening Library” (2021).